From the supplement of paper PMC10849652
Some of the results follow.

Amino acid sequences for entries named in this document (tags omitted). A change or cut given only in a name is not applied to a line headed by its entry.
UniProt Q96S44: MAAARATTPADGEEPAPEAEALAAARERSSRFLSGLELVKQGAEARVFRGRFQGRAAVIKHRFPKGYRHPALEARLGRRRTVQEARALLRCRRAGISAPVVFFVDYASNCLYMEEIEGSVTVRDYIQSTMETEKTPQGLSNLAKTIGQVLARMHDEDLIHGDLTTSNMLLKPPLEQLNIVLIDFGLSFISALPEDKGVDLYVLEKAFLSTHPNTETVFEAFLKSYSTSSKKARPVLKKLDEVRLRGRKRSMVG
UniProt Q9NXH8: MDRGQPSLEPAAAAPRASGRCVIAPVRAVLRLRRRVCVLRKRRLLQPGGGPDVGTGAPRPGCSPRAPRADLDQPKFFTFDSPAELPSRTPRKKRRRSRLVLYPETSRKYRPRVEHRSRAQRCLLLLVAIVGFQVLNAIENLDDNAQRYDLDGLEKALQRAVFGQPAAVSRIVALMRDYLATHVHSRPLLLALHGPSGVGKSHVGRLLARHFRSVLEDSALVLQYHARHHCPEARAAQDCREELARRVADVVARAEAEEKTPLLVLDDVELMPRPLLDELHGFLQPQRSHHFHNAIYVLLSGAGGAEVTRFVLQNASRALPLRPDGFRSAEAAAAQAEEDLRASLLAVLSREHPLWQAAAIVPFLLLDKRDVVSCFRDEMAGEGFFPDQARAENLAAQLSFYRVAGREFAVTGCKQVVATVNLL
UniProt Q9BRZ2: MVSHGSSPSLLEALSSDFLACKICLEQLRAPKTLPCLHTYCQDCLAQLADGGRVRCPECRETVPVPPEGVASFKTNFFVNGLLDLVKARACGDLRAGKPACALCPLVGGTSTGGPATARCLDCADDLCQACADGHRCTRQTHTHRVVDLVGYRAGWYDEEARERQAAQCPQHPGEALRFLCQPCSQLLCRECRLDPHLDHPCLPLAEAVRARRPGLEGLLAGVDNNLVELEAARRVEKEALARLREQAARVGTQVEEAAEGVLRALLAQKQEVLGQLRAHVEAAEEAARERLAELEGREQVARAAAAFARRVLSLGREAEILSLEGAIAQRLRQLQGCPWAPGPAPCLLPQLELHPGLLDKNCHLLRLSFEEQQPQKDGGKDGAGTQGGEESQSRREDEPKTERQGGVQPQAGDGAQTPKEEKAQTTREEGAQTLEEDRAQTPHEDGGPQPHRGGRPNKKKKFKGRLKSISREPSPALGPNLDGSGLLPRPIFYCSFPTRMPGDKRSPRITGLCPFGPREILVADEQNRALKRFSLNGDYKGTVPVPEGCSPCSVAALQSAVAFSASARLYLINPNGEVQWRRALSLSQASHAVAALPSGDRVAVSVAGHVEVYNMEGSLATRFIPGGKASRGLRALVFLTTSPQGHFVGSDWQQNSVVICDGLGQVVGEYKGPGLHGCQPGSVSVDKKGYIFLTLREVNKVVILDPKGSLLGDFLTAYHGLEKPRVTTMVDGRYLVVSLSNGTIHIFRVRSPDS
UniProt P20333, whole entry, looked up: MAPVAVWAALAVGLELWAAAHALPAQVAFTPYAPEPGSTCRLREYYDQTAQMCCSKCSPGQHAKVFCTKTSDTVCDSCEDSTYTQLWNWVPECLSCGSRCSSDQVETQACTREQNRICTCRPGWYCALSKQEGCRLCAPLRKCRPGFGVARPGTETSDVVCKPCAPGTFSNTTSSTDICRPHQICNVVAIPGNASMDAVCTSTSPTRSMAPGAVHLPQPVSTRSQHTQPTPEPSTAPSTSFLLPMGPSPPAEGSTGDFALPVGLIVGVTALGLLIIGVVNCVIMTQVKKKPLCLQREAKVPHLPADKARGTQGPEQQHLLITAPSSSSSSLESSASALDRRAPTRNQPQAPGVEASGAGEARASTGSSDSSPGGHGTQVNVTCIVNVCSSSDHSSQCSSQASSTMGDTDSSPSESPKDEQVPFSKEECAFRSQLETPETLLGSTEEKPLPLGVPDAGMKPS
UniProt O75157: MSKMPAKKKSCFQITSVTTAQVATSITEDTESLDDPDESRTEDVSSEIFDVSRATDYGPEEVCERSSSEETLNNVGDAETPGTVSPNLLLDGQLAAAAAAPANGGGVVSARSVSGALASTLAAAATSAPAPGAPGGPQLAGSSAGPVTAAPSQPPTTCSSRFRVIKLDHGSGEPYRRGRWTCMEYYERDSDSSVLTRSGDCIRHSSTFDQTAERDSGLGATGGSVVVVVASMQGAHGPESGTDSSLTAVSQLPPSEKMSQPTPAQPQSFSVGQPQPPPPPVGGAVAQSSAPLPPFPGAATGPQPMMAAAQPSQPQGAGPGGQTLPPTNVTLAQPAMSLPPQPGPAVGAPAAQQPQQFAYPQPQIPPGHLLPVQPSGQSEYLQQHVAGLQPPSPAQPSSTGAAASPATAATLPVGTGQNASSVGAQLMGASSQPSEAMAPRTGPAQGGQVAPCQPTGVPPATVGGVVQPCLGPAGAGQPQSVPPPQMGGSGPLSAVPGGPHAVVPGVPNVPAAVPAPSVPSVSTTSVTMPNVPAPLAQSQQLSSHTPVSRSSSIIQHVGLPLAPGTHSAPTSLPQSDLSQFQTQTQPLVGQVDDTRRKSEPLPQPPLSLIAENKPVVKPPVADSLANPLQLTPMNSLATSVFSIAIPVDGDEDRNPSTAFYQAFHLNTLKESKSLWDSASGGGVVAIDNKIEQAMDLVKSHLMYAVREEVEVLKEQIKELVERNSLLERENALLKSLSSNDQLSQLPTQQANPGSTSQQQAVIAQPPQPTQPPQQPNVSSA
UniProt Q8WW01: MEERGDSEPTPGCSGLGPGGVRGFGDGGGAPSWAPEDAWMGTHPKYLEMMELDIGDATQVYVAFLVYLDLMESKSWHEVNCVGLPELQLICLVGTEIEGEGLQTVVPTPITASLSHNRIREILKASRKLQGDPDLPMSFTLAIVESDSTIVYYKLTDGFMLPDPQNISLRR
UniProt Q9UJA5: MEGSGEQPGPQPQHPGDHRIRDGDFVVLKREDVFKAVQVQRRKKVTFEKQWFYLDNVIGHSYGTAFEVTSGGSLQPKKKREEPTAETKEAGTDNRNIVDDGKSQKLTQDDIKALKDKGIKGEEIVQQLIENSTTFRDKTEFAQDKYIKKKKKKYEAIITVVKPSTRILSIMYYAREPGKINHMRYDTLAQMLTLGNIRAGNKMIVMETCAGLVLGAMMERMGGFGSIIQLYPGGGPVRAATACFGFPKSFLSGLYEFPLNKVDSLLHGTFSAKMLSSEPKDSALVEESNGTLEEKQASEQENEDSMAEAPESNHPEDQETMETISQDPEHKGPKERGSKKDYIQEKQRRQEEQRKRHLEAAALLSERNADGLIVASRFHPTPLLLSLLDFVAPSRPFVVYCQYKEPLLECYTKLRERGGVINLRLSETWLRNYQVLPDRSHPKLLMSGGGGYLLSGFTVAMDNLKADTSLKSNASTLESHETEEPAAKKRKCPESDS
UniProt Q14258, whole entry, looked up: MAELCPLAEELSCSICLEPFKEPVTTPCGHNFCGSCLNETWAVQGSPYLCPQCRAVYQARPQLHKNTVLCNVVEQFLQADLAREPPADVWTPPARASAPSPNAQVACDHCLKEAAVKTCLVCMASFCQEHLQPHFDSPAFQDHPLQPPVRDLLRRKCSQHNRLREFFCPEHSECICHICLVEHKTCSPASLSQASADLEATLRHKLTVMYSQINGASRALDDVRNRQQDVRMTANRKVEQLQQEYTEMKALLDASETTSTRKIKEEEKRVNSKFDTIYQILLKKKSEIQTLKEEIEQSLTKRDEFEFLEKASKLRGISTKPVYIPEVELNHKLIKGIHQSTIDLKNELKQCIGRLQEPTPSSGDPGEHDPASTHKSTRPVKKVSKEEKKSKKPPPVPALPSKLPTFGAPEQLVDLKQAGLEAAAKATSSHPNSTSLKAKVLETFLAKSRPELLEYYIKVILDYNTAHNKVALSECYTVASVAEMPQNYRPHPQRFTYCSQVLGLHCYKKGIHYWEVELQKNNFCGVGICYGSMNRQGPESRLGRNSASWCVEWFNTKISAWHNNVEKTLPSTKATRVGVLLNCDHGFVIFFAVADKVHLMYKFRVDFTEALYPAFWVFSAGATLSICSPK
UniProt Q13625: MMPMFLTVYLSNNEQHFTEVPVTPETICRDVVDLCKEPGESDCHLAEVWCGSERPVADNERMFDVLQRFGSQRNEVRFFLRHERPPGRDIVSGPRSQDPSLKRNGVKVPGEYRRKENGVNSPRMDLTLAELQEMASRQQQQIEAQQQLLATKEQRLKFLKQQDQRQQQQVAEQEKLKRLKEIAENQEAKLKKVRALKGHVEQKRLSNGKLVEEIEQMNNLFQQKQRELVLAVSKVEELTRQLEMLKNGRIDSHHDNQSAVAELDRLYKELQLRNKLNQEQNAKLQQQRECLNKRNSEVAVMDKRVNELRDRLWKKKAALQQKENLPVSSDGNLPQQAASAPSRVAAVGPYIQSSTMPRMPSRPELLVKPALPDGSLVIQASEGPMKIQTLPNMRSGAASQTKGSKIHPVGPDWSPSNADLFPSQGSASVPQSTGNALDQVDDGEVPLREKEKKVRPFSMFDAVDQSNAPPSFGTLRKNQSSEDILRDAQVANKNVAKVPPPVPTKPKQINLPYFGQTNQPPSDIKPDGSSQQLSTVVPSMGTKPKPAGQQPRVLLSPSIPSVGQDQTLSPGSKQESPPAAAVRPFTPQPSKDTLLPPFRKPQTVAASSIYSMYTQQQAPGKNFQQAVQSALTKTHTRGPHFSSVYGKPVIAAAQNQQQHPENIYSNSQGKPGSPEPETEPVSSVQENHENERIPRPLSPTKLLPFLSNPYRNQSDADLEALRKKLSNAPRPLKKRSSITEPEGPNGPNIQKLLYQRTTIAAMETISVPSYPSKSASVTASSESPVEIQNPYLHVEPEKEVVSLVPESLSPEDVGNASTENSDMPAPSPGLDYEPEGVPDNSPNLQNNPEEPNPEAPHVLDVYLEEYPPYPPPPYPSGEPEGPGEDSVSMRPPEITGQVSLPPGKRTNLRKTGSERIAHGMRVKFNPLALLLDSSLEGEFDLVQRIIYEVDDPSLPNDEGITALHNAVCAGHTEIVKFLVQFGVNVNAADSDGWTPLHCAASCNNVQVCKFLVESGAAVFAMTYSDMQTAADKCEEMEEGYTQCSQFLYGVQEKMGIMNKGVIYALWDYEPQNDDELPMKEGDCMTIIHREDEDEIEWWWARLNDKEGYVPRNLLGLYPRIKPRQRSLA
UniProt Q8NFQ8: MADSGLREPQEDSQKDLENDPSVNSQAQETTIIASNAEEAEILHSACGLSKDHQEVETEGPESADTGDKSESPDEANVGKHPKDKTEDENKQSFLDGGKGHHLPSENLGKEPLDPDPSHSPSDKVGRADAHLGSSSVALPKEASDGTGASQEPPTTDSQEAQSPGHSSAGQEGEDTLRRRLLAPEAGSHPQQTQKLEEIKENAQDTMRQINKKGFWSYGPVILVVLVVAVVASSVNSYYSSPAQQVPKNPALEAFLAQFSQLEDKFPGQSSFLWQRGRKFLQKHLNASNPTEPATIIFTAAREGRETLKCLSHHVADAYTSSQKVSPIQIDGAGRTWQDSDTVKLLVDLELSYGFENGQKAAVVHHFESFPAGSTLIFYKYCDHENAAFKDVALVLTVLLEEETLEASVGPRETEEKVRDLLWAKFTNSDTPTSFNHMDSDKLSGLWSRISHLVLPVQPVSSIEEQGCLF
UniProt Q5JU69: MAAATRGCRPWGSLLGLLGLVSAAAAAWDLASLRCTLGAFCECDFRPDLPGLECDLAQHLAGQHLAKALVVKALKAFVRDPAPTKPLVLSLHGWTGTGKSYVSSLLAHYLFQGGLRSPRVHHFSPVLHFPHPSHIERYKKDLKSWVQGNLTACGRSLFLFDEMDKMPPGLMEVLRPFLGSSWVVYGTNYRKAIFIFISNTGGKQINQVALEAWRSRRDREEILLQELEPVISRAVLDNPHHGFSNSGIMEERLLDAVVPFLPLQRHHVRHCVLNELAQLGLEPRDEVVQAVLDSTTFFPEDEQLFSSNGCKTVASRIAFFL
UniProt Q15650: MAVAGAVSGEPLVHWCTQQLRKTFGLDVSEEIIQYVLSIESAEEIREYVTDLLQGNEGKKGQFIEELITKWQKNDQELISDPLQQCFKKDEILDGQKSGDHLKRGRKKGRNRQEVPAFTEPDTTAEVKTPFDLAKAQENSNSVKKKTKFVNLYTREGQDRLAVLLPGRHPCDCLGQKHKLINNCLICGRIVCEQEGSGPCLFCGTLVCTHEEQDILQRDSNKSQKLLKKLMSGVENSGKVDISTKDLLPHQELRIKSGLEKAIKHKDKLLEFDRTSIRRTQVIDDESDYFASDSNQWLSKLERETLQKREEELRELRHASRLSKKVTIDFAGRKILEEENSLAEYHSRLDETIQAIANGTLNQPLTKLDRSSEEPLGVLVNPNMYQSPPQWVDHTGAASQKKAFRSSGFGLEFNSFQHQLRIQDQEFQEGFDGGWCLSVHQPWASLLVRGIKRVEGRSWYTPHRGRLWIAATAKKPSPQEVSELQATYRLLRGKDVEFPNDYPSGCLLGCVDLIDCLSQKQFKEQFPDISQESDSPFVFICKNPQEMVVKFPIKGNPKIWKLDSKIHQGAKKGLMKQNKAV

compound: CC(C)C1=C2N=C(C=C(N2N=C1)NCC3=CC=CC=C3)NCCCCCCN; test: log2 fold change, soluble protein after heating vs DMSO (PISA); higher = thermal stabilisation; K562 cells, 10 uM, 30 min; active = over 0.2 and 3.5 SD of the protein, either way, in both replicates (recomputed)
Procedure, shortened: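 K562 cells at 2×10^6 cells/mL were treated for 30 min with 10 μM compound, and aliquots were heated for 3 min over 48°C-58°C before pooling. Extraction used PBS with 0.5% NP-40 at 4°C, and soluble protein was the supernatant after 21,000xg for 90 min, measured by TMTpro 16plex LC-MS/MS with channel sums equalised. Thermal stability values, relative to control samples and from duplicates, are log2 fold changes.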

log2 fold change, inactive:
TP53RK (UniProt Q96S44) 0.062
TOR4A (UniProt Q9NXH8) -0.114
TRIM56 (UniProt Q9BRZ2) 0.004
TRAPPC5 (UniProt Q8IUR0) -0.094
TPST2 (UniProt O60704) 0
TRMT13 (UniProt Q9NUP7) 0.031
TPP2 (UniProt P29144) -0.003
TNFRSF1B (UniProt P20333) 0.193
TSC22D4 (UniProt Q9Y3Q8) 0.062
TSC22D2 (UniProt O75157) 0.036
TSEN15 (UniProt Q8WW01) -0.062
TRMT6 (UniProt Q9UJA5) -0.031
TOMM22 (UniProt Q9NS69) -0.021
TRAPPC10 (UniProt P48553) -0.034
TRIM25 (UniProt Q14258) -0.007
TPM3 isoform 2 (UniProt P06753) 0.044
TRAPPC12 (UniProt Q8WVT3) -0.068
TRMU (UniProt O75648) -0.015
TP53BP2 isoform 3 (UniProt Q13625) -0.065
TRMT11 (UniProt Q7Z4G4) 0.041
TOR1AIP2 (UniProt Q8NFQ8) 0.005
TPM3 isoform 4 (UniProt P06753) 0.015
TRPV2 (UniProt Q9Y5S1) 0.175
TPM1 (UniProt H7BYY1) 0.041
TPCN1 isoform 3 (UniProt Q9ULQ1) 0.01
TOR2A (UniProt Q5JU69) 0.014
TRIP4 (UniProt Q15650) -0.051
TOR1AIP1 isoform 3 (UniProt Q5JTV8) 0.049
TOR1A (UniProt O14656) 0.011
TPI1 (UniProt P60174) 0.049
TRIR (UniProt Q9BQ61) 0.107
TOP2B (UniProt Q02880) -0.14

Already shown: entries from further up.
log2 fold change, inactive:
TRMT6 (UniProt Q9UJA5) -0.031
TOMM22 (UniProt Q9NS69) -0.021
